Test results: article PMC12302539
Results are given in words; binding and its absence hold for the method and conditions named. In cells and extracts the contact can be indirect. Some entries that bind do so weakly or less than the wild type. Tags and fused reporters may be left off the sequences shown.

Sequences of proteins named here, by UniProt entry; tags and fusion partners are left off.
UniProt Q99814: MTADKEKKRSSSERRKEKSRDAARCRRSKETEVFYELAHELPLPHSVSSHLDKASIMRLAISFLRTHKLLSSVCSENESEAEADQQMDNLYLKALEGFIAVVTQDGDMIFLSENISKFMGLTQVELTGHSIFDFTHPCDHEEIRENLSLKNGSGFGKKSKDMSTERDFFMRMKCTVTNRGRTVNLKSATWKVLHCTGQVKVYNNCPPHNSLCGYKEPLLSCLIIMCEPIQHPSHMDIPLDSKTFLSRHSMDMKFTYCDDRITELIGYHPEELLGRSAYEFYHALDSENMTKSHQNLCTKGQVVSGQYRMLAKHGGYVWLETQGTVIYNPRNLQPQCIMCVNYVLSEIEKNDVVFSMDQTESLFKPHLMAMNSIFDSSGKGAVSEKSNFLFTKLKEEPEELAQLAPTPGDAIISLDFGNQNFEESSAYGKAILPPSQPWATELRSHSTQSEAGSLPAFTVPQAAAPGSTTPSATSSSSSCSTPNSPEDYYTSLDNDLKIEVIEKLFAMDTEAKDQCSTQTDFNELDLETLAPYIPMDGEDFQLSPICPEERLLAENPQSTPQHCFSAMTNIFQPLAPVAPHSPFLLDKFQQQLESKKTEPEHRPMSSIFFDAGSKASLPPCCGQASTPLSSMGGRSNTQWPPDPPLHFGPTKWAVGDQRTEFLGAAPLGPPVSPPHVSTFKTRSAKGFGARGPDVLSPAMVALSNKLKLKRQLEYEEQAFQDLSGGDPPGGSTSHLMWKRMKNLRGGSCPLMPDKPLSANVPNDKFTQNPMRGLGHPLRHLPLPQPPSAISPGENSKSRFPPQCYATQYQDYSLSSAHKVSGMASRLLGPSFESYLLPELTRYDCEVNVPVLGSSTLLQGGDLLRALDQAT

Target: T1, zinc finger protein 692 (ZNF692), Flag-tagged (UniProt Q9BU19)
T1 sequence: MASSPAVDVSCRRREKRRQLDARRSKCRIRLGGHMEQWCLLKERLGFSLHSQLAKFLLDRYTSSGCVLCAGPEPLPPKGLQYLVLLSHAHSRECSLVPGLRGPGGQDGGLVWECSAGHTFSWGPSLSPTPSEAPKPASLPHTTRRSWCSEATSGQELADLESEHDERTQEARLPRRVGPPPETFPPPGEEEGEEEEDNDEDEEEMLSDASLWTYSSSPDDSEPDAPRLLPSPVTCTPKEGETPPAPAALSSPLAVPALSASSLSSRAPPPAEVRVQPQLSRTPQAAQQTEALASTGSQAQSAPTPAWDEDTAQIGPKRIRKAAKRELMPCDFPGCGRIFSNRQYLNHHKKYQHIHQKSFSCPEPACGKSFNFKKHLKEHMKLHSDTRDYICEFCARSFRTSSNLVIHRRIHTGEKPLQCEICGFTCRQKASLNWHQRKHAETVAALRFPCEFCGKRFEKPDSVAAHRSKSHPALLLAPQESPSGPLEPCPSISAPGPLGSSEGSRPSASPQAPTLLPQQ
Assay: co-IP; anti-Flag (DDDDK-Tag) magnetic beads on lysate of 293T cells stably expressing Flag-ZNF692; high salt lysis buffer (20 mM HEPES pH 7.4, 350 mM NaCl, 1% NP-40, 0.5% Triton X-100), 4 °C overnight, three washes with lysis buffer; western blotting

binding: binds
Substance: HIF-2α (from UniProt Q99814 1-870)
